Consider 16 molecules from PubChem BioAssay AID200 (DTP/NCI, 2004).

The list does not hold the whole screen: it is rich in T/C values a quarter to a half above the control, in often repeated tests (any T/C) and in doses without a T/C. Other doses and runs of a compound stand elsewhere. T/C is the treated group as % of the vehicle group. Some entries give survivors of the animals treated and no T/C: the source holds a T/C of zero for them, seemingly a mark for toxic or unscored doses. Some doses without a T/C left all or most animals alive at the check, yet need not have been tolerated: the source hardly ever lists a survival T/C far under the control, and the zero likely stands for such cases as well. Survivors were counted at the toxicity check, usually on the fifth day, unless a day is given; later deaths do not show. Schedule codes are those of the source, read here as Q, the interval in days (D) or hours (H), X, the number of doses. Additions like (4×) say how often a value occurs here. Some doses were run more than once; the values are given in rising order. Where survival is the endpoint, this PubChem deposit counts one and a half times the control or more as active, and values a quarter to a half above the control carry no call in these data; other NCI protocols may use other cut-offs. Some T/C values are followed by the survivors on the day toxicity was checked, most often the fifth; without a count, all were alive then.

In this experiment the test system is B6C3F1 mice, B16 melanoma ip, median survival T/C. Kind of experiment: NCI In Vivo Anticancer Drug Screen. Data for tumor model B16 Melanoma (intraperitoneal) in B6C3F1 mice. The settings on record: T/C endpoint: median survival time, higher T/C = longer survival. The essentials: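 Mice bearing transplanted tumor were dosed with compound or vehicle, and survival was recorded. Activity is expressed as the treated-group measurement (T) divided by the vehicle control measurement (C).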

[1] abbreviates: dose: 0.05 mg/kg/injection, schedule: Q01DX009 (ip), vehicle: other.
The mark [2] stands for this setting: dose: 0.1 mg/kg/injection, schedule: Q01DX009 (ip), vehicle: Klucel (hydroxypropylcellulose) (HPC).
Setting [3] is: dose: 0.1 mg/kg/injection, schedule: Q01DX009 (ip), vehicle: other.
Setting [4] is: dose: 0.2 mg/kg/injection, schedule: Q01DX009 (ip), vehicle: Klucel (hydroxypropylcellulose) (HPC).
Setting [5] is: dose: 25.0 mg/kg/injection, schedule: Q01DX009 (ip), vehicle: saline with Tween-80.
Setting [6] is: dose: 50.0 mg/kg/injection, schedule: Q01DX009 (ip), vehicle: saline with Tween-80.
The mark [7] stands for this setting: dose: 100.0 mg/kg/injection, schedule: Q01DX009 (ip), vehicle: saline with Tween-80.
Where [8] appears, read: dose: 200.0 mg/kg/injection, schedule: Q01DX009 (ip), vehicle: saline with Tween-80.
Setting [9] is: dose: 400.0 mg/kg/injection, schedule: Q01DX009 (ip), vehicle: saline with Tween-80.
Setting [10] is: dose: 3.12 mg/kg/injection, schedule: Q01DX009 (ip), vehicle: Klucel (hydroxypropylcellulose) (HPC).
Setting [11] is: dose: 6.25 mg/kg/injection, schedule: Q01DX009 (ip), vehicle: Klucel (hydroxypropylcellulose) (HPC).
[12] abbreviates: dose: 25.0 mg/kg/injection, schedule: Q01DX009 (ip), vehicle: Klucel (hydroxypropylcellulose) (HPC).
Where [13] appears, read: dose: 400.0 mg/kg/injection, schedule: Q01DX009 (ip), vehicle: sodium bicarbonate.
Setting [14] is: dose: 100.0 mg/kg/injection, schedule: Q01DX009 (ip), vehicle: Klucel (hydroxypropylcellulose) (HPC).
Setting [15] is: dose: 200.0 mg/kg/injection, schedule: Q01DX009 (ip), vehicle: Klucel (hydroxypropylcellulose) (HPC).
Setting [16] is: dose: 400.0 mg/kg/injection, schedule: Q01DX009 (ip), vehicle: Klucel (hydroxypropylcellulose) (HPC).
Where [17] appears, read: dose: 50.0 mg/kg/injection, schedule: Q01DX009 (ip), vehicle: Klucel (hydroxypropylcellulose) (HPC).

Consider `CO[C@H](/C(C)=C/C=C/C(C)=C/c1coc(C)n1)[C@H](C)[C@H]1C[C@@H](O)[C@@]2(C)O[C@H]2/C=C/[C@@H](C)[C@@H]2C[C@@H](CC(=O)O2)C[C@H]2O[C@@H]2C(=O)O1`, for which the survivor count (dose: 0.03 mg/kg/injection, schedule: Q01DX009 (ip), vehicle: other) is given as 10 of 10; the survivor count under setting [1] is on record as 10 of 10; the survivor count under setting [2] is recorded as 9 of 10; the survivor count under setting [3] is 6 of 10; the survivor count under setting [4] was 10 of 10; the survivor count (dose: 0.2 mg/kg/injection, schedule: Q01DX009 (ip), vehicle: other) is 5 of 10 and 10 of 10. Further, the survivor count reads like this: (dose: 0.4 mg/kg/injection, schedule: Q01DX009 (ip), vehicle: Klucel (hydroxypropylcellulose) (HPC)) 6 of 10 and 10 of 10; (dose: 0.4 mg/kg/injection, schedule: Q01DX009 (ip), vehicle: other) 2 of 10 and 10 of 10; (dose: 0.8 mg/kg/injection, schedule: Q01DX009 (ip), vehicle: Klucel (hydroxypropylcellulose) (HPC)) 1 of 10, 2 of 10, 3 of 10, 8 of 10; (dose: 0.8 mg/kg/injection, schedule: Q01DX009 (ip), vehicle: other) 1 of 10 and 4 of 10; (dose: 0.8 mg/kg/injection, schedule: Q01DX009 (sc), vehicle: Klucel (hydroxypropylcellulose) (HPC)) 9 of 10; (dose: 1.6 mg/kg/injection, schedule: Q01DX009 (ip), vehicle: Klucel (hydroxypropylcellulose) (HPC)) 0 of 10. In addition, the T/C is 122, 123, 128, 171 % of control (dose: 0.05 mg/kg/injection, schedule: Q01DX009 (ip), vehicle: Klucel (hydroxypropylcellulose) (HPC)); 127 % of control under setting [1]; 126 % of control (dose: 0.05 mg/kg/injection, schedule: Q01DX009 (sc), vehicle: Klucel (hydroxypropylcellulose) (HPC)); 124, 133, 145, 211 % of control under setting [2]; 128 % of control under setting [3]; 136, 142, 183, 214 % of control under setting [4]. Moreover, the T/C (dose: 0.2 mg/kg/injection, schedule: Q01DX009 (sc), vehicle: Klucel (hydroxypropylcellulose) (HPC)) is 129 % of control.

Take `CCC(C)n1ncc2c(N(C)C)ncnc21` (centres undefined): the survivor count under setting [5] is listed as 9 of 10, the survivor count under setting [6] is recorded as 7 of 10 and the survivor count under setting [7] is reported as 0 of 10.

Turning to `O=C(Nc1cccc2c(OC(=O)C(Cl)Cl)c(N=Nc3ccc(S(=O)(=O)Nc4nccs4)cc3)cc(N=Nc3ccc(S(=O)(=O)Nc4nccs4)cc3)c12)C(Cl)Cl` (tested in a mixture with another compound), the T/C was 125 % of control under setting [5] and 141 % of control under setting [6]. Also, the survivor count under setting [7] was 7 of 10 and 10 of 10.

Regarding `O=C(NC(Cc1ccccc1)C(=O)O)c1ccccc1` (centres undefined), under setting [8], the T/C is 137 % of control and the survivor count is listed as 10 of 10. Besides, the survivor count under setting [9] is given as 10 of 10.

Turning to `C=C1C(=O)OC2CC(C)C3C4OC4C(O)C3(C)C(O)C12` (centres undefined), under “dose: 6.25 mg/kg/injection, schedule: Q01DX009 (ip), vehicle: saline”, the survivor count is on record as 6 of 10.

For `CNC(=O)OCc1c(COC(=O)NC)c(-c2ccc(F)cc2)n2c1CCC2`, the T/C by setting is: (dose: 0.78 mg/kg/injection, schedule: Q01DX009 (ip), vehicle: Klucel (hydroxypropylcellulose) (HPC)) 144 % of control; (dose: 1.56 mg/kg/injection, schedule: Q01DX009 (ip), vehicle: Klucel (hydroxypropylcellulose) (HPC)) 131 % of control; under setting [10], 137 % of control; under setting [11], 146 % of control. Further, the survivor count under setting [12] is recorded as 10 of 10.

Turning to `Brc1c(NC2=NCCN2)ccc2nccnc12`, the survivor count is on record as 8 of 10 (dose: 100.0 mg/kg/injection, schedule: Q01DX009 (ip), vehicle: saline) and 8 of 10 (dose: 200.0 mg/kg/injection, schedule: Q01DX009 (ip), vehicle: saline).

In the case of `O=C(NC(Cc1ccc(I)cc1)C(=O)O)c1ccc(Br)cc1` (centres undefined), under setting [13], the survivor count is 7 of 10.

Consider `CS(=O)(=O)OCCN(CCOS(C)(=O)=O)c1ccc(C=Nc2ccc(-c3csc(COc4ccccc4)n3)cc2)cc1`, for which the T/C reads like this: under setting [12], 128 % of control; under setting [14], 139 % of control. For the same molecule, the survivor count under setting [15] is given as 10 of 10 and the survivor count under setting [16] is 10 of 10.

Regarding `c1ccc(P(CCNCCP(c2ccccc2)c2ccccc2)c2ccccc2)cc1`, the survivor count runs as follows: under setting [8], 8 of 8; under setting [9], 7 of 10.

Turning to `COP12(OCCO1)SC(C(F)(F)F)=C(C(F)(F)F)S2`, the survivor count runs as follows: under setting [7], 0 of 10; under setting [8], 0 of 10; under setting [9], 0 of 10.

With `CN1c2c(nc(N)[nH]c2=O)NCC1CCNc1ccc(C(=O)NC(CCC(=O)O)C(=O)O)cc1` (centres undefined), the T/C reads like this: (dose: 200.0 mg/kg/injection, schedule: Q01DX009 (ip), vehicle: sodium bicarbonate) 125 % of control; under setting [13], 128 % of control [9 of 10 alive]; (dose: 800.0 mg/kg/injection, schedule: Q01DX009 (ip), vehicle: sodium bicarbonate) 131 % of control.

`CCC(=O)[O][Bi]([c]1ccccc1)[c]1ccccc1`: the survivor count is, setting by setting: under setting [17], 6 of 10; under setting [14], 0 of 10; under setting [15], 0 of 10; under setting [16], 0 of 10.

For `COc1cccc2c1C(=O)c1c(O)c3c(c(O)c1C2=O)C[C@@](O)(C(C)=O)C[C@@H]3OC1CC(N(Cc2ccccc2)Cc2ccccc2)C(O)C(C)O1` (some centres undefined), the T/C was 127 % of control (dose: 6.0 mg/kg/injection, schedule: Q01DX009 (ip), vehicle: saline with Tween-80) and 139 % of control (dose: 6.0 mg/kg/injection, schedule: Q01DX009 (ip), vehicle: water). In addition, the survivor count is, setting by setting: (dose: 24.0 mg/kg/injection, schedule: Q01DX009 (ip), vehicle: saline with Tween-80) 10 of 10; (dose: 24.0 mg/kg/injection, schedule: Q01DX009 (ip), vehicle: water) 10 of 10; (dose: 48.0 mg/kg/injection, schedule: Q01DX009 (ip), vehicle: saline with Tween-80) 9 of 10; (dose: 48.0 mg/kg/injection, schedule: Q01DX009 (ip), vehicle: water) 9 of 10.

In the case of `CC1=CC(=Nc2ccc(N(CCCl)CCCl)cc2)C=C(C)C1=O`, the T/C was 135 % of control under setting [10], 135 % of control under setting [11] and 128 % of control under setting [12]. For the same molecule, the survivor count by setting is: under setting [17], 10 of 10 (2×); under setting [14], 10 of 10 and 7 of 7.

With `CC1Oc2cc3c(-c4c(O)cc(O)c5c(O)c6c(cc45)OC(C)C(C)C6=O)c(O)cc(O)c3c(O)c2C(=O)C1C` (centres undefined), the survivor count is, setting by setting: (dose: 5.0 mg/kg/injection, schedule: Q01DX009 (ip), vehicle: suspension in saline) 7 of 10 and 10 of 10; (dose: 10.0 mg/kg/injection, schedule: Q01DX009 (ip), vehicle: suspension in saline) 5 of 10 and 10 of 10; (dose: 20.0 mg/kg/injection, schedule: Q01DX009 (ip), vehicle: suspension in saline) 2 of 10; (dose: 40.0 mg/kg/injection, schedule: Q01DX009 (ip), vehicle: suspension in saline) 1 of 10; (dose: 80.0 mg/kg/injection, schedule: Q01DX009 (ip), vehicle: suspension in saline) 0 of 10.
